Measurements reported in PubChem BioAssay AID1259308 (NCATS, 2017)
Shown is a random part of about 59,000 reagents tested. In the full data, about 1,510 (2.6%) were called active. 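Calls use total luciferase alone and ignore viability, so some active siRNAs may act by altering cell number.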 The numbers tell different reagents against one gene apart. Further read-outs or replicates are left out here. Reagent sequences are not shown.

- Test: 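Genes whose loss raises luciferase production in HEK293 cells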 (primary screen)
- System: human HEK293 embryonic kidney cells stably expressing firefly luciferase (HEK-CMV-Luc2-Hygro)
- Reagents: single siRNA against human genes, 0.8 pmol siRNA per well
- Timing: 72 h
- Measurement: 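Luciferase light (ONE-Glo) measured on one replicate plate set and viability (CellTiter-Glo) on the other, scaled to a negative control siRNA, with robust z-scores and luciferase per cell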
- Scale: total luciferase, z-score: higher = more reporter protein produced
- Rule for the call: 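Active when the median/MAD z-score for overall luciferase is greater than 3; a gene was taken forward for validation with new siRNAs if at least two of its three siRNAs passed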
- Meaning of the calls: active = raised luciferase; inactive = no rise

The opening 3 entries, ahead of the listing:
no.	gene	siRNA no.	total luciferase, z-score	outcome
1	RRAD	1	1.39	inactive
2	RRAD	2	1.53	inactive
3	RRAD	3	-0.111	inactive

Results, from the start:
no.	gene	siRNA no.	total luciferase, z-score	outcome
1	RRAD	1	1.39	inactive
2	RRAD	2	1.53	inactive
3	RRAD	3	-0.111	inactive
4	SYT14	1	0.556	inactive
5	SYT14	2	0.103	inactive
6	SYT14	3	2.45	inactive
7	SPANXB1	1	0.31	inactive
8	SPANXB1	2	0.24	inactive
9	SPANXB1	3	0.812	inactive
10	KCNA10	1	-0.311	inactive
11	KCNA10	2	-0.158	inactive
12	KCNA10	3	-0.00248	inactive
13	OR2M4	1	0.24	inactive
14	OR2M4	2	-1.65	inactive
15	OR2M4	3	0.912	inactive
16	RPL18AP16	1	-0.109	inactive
17	RPL18AP16	2	-2.73	inactive
18	RPL18AP16	3	-0.248	inactive
19	OR8J3	1	0.522	inactive
20	OR8J3	2	-1.25	inactive
21	OR8J3	3	1.17	inactive
22	KIAA1143	1	-0.335	inactive
23	KIAA1143	2	-0.111	inactive
24	KIAA1143	3	-0.161	inactive
25	COLQ	1	0.191	inactive
26	COLQ	2	2.18	inactive
27	COLQ	3	0.209	inactive
28	SCN5A	1	-0.184	inactive
29	SCN5A	2	1.84	inactive
30	SCN5A	3	-1.41	inactive
31	MAPK9	1	-0.749	inactive
32	MAPK9	2	-0.628	inactive
33	MAPK9	3	0.477	inactive
34	HNF1A	1	1.23	inactive
35	HNF1A	2	-0.357	inactive
36	HNF1A	3	-0.386	inactive
37	IFT54	1	2.06	inactive
38	IFT54	2	-1.09	inactive
39	IFT54	3	-0.327	inactive
40	LPAL2	1	1.69	inactive
41	LPAL2	2	-0.138	inactive
42	LPAL2	3	-2.09	inactive
43	TBC1D15	1	-0.989	inactive
44	TBC1D15	2	-0.172	inactive
45	TBC1D15	3	0.274	inactive
46	ZDHHC24	1	-1.77	inactive
47	ZDHHC24	2	0.354	inactive
48	ZDHHC24	3	-1.08	inactive
49	CPNE2	1	1.6	inactive
50	CPNE2	2	1.03	inactive
51	CPNE2	3	0.108	inactive
52	PAFAH2	1	0.169	inactive
53	PAFAH2	2	-0.516	inactive
54	PAFAH2	3	1.57	inactive
55	NIBAN3	1	1.1	inactive
56	NIBAN3	2	-0.315	inactive
57	NIBAN3	3	-2.71	inactive
